# The exact form of at least one protein or probe is not confirmed. Where cells or extracts were used, other partners may take part. A weaker result is weaker than the reference pair of the same experiment.
# Molecular target: EGFR (cell-surface, endogenous) (UniProt P00533)
# Assay: flow cytometry on cells
# Conditions: 5'-alkyne clicked to AF488 azide (CuAAC triazole), 1e5 cells, 1-1000 nM oligonucleotide, 1 h at 37 C, 5% CO2, washed twice with DPBS (Ca/Mg), incubation medium and pH not stated, protein on the cell surface, label: 5'-AF488, single-stranded DNA
sequence,measurement,setting,value
GGTCGCTTATCTGCACTCGGA [AF488-A1],binding result,"A-431 cells, about one order of magnitude below GR20",binds more weakly
same,binding result,"U-251 cells, very weak binding",binds more weakly
ACGCACCATTTGTTTAATATGTTTTTTAATTCCCCTTGTGGTGTGT [AF488-GR20],binding result,"A-431 cells (EGFR overexpressing), 1000 nM, about one order of magnitude above A1",binds
same,binding result,"HCT-116 cells, weak staining, virtually no difference from A1",binds more weakly
same,binding result,"U-87 cells, weak staining, virtually no difference from A1",binds more weakly
same,binding result,"U-251 cells, 1000 nM, about two orders of magnitude above A1",binds

# Reference: article PMC11597439
